The text below walks through data of publication PMC3008608.

Protein sequences, listed by entry. Tags and fused reporters are not part of them.
UniProt Q07817: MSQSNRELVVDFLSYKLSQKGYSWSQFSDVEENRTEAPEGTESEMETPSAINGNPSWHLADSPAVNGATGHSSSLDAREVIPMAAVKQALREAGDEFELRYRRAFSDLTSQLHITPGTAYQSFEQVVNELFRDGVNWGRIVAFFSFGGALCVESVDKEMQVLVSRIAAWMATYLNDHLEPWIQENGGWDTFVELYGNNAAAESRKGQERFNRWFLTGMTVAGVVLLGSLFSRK
UniProt Q13323: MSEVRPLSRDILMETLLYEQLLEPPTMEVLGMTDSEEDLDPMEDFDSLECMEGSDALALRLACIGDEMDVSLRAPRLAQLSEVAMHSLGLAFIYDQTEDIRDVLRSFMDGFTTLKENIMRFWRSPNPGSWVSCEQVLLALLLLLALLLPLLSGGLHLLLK

For this experiment, the target named is Bcl-xL (human (endogenous in KMM-1)) (UniProt Q07817). Description: co-IP; KMM-1 cells transfected with empty vector or Bik cDNA, harvested 24 h after transfection; lysates (1% digitonin lysis buffer); Bik, Bcl-2 and Bcl-xL immunoprecipitates analysed by western blot.

No constants are given. Whether binding was seen depends on the method and setting. Binding seen in cells or lysates may run through a third protein. Some entries that bind do so weakly or less than the wild type.

With “Bik-HA (ectopic Bik) (from UniProt Q13323 1-160)”, the binding entry is on record as “binds”.
